# Source: PubChem BioAssay AID504467 (National Center for Advancing Translational Sciences (NCATS), 2011)
# Among all 330,000 compounds or so, about 7,700 (2.3%) were called active. Inconclusive means that the source gave no clear call. Such entries were picked first, then a sample of the others. Calls come from the whole dose curve; as a rule, active = well fitted inhibition curve with a large enough effect; inconclusive = small, poorly fitted or top-dose-only effect, or effect the other way; inactive = flat fitted curve, though single readings scatter. A potency beside an inconclusive call is a rough fit, not a confirmed value.
# Experiment: qHTS screen for small molecules that inhibit ELG1-dependent DNA repair in human embryonic kidney (HEK293T) cells expressing luciferase-tagged ELG1; note: nearly all actives have a fitted effect of over 55% in size
# Conditions: HEK293T ELG1-luciferase reporter, luminescence, 16 h, DNA damage induced by 5-fluorouridine; activity change, negative = inhibition: at 46.1 µM (top of the series)
# Procedure, shortened: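 Reporter activity after DNA damage by 5-fluorouridine is monitored. Compound-treated cells incubate 16 hr at 37 °C, then ONE-Glo is added for 30 min before luminescence reading.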
# % is set by controls: 0 for no effect and ±100 for the full control effect; potency is the fitted concentration of half-maximal effect.
SMILES,Potency,"activity change, negative = inhibition"
CCc1nc(Sc2nnnn2-c2ccccc2)c2c3c(sc2n1)CCCC3,"inconclusive: 29.1 µM [inhibitor, single point]",–
O=C(CN1CCSC1=O)N1CCN(S(=O)(=O)c2ccccc2)CC1,–,inactive: 5.23%
CCN(CC)S(=O)(=O)c1ccc(=O)n(CC(=O)N2Cc3ccccc3CC2C(N)=O)c1 (configuration not stated),–,inactive: 3.39%
O=C(c1cccs1)N1C(=O)c2cccc3cccc1c23,–,inactive: -5.72%
CC(C)n1ncc2c(C(=O)NCc3ccccc3CN(C)C)cc(C3CC3)nc21,–,inactive: -11.2%
Cc1[nH]c2ccccc2c1/C=C/c1nc2ccccc2c(=O)[nH]1,"inconclusive: 5.8 µM [activator, partial curve]",–
Nc1nnc(-c2ccccc2F)s1,"inconclusive: 18.3 µM [activator, partial curve]",–
[O-]/C(=C(\C(=S)Nc1cccc2ccccc12)[n+]1ccccc1)c1ccc2c(c1)OCCO2,–,inactive: 6.95%
Cc1cc(C)c(C(=O)CN2C(=O)NC3(CCCCC3)C2=O)cc1C,"inconclusive: 29.1 µM [activator, single point]",–
Cn1c(CNS(=O)(=O)c2ccc(Cl)cc2)n[nH]c1=S,–,inactive: 8.75%
Cc1cnc(CN2CCCC(C(=O)c3ccc4c5c(cccc35)CC4)C2)[nH]1 (configuration not stated),"inconclusive: 20.6 µM [inhibitor, single point]",–
CC(C)C(C)NC(=O)COC(=O)C1CCN(S(=O)(=O)c2ccc3c(c2)OCCO3)CC1 (configuration not stated),–,inactive: 0.324%
CCOC(=O)N1CCN(C(=O)CCS(=O)(=O)c2ccc3c(c2)CCN3C(=O)CC)CC1,–,inactive: 7.5%
COc1ccc(-c2csc(N)n2)cc1F,"inconclusive: 13 µM [activator, partial curve]",–
CC(/C=C/c1ccc(N(C)C)cc1)=N/N=C1/NC(=O)CC(C(=O)Nc2ccc(Cl)cc2)S1 (configuration not stated),"inconclusive: 20.6 µM [activator, partial curve]",–
O=C(NC1c2ccccc2-c2ccccc21)N1CCOCC1,"inconclusive: 20.6 µM [inhibitor, single point]",–
Cc1ccc(S(=O)(=O)c2cccc(S(=O)(=O)N3CCCC3)c2)cc1S(=O)(=O)N1CCCC1,"inconclusive: 13 µM [inhibitor, partial curve]",–
CC(C)Cc1nc2ccc(N)cc2[nH]1,–,inactive: -4.19%
OC(CN1C2=NCCN2c2ccccc21)c1ccc2c(c1)OCO2 (configuration not stated),–,inactive: 2.15%
Cc1cc(OCCN2CCCCCC2)ccc1[N+](=O)[O-],"inconclusive: 18.4 µM [activator, partial curve, poor fit]",–
COCCn1c(N)c(Sc2ccc(Cl)cc2)c(=O)[nH]c1=O,–,inactive: 14.6%
Cn1nc(C(=O)NNC(=O)COc2ccccc2)c2ccccc2c1=O,–,inactive: 0.0371%
CCOc1cc(N2CCOCC2)c(OCC)cc1NC(=O)c1nc2nc(C)cc(C)n2n1,active: 7.94 µM,–
COC(=O)[C@H](CC(C)C)NC(=O)NCc1ccc(Cl)cc1,"inconclusive: 18.3 µM [inhibitor, single point]",–

SMILES,Potency,"activity change, negative = inhibition"
CSc1ccc(C(=O)N2CCC(CCC(=O)NC3CC3)CC2)cc1,"inconclusive: 29.1 µM [activator, single point]",–
Cc1ccc(NC(=O)c2ccco2)c(NC(=O)CN2C(=O)c3ccccc3C2=O)c1,"inconclusive: 6.51 µM [activator, single point]",–
Cc1csc2nc(CNS(=O)(=O)c3ccc(-c4ccccc4)cc3)cn12,"inconclusive: 14.6 µM [inhibitor, partial curve]",–
C=CCn1c(-c2cccn(Cc3ccc(Cl)cc3Cl)c2=O)n[nH]c1=S,–,inactive: -15.3%
CCn1cc([N+](=O)[O-])c(C(=O)N2N=C(c3ccc(Cl)c(Cl)c3)CC2c2ccccc2O)n1 (configuration not stated),"inconclusive: 25.9 µM [inhibitor, single point]",–
O=C(NCCSc1ccccc1)c1ccc(Br)cc1,"inconclusive: 2.59 µM [activator, full curve, poor fit]",–
CC(C)CN1CCC(=O)N([C@H](CSc2ccccc2)Cc2ccccc2)CC1,–,inactive: -11.6%
O=C(NCc1cccs1)c1cc(-c2cccc(Cl)c2)on1,"inconclusive: 9.2 µM [activator, partial curve]",–
CC(NS(=O)(=O)c1ccc2c(c1)oc(=O)n2C)c1ccccc1 (configuration not stated),–,inactive: 2.87%
COCc1ccc(C(=O)N2CCc3c([nH]c4ccccc34)C2c2ccccn2)s1 (configuration not stated),"inconclusive: 32.6 µM [inhibitor, single point]",–
Cc1ccc(-n2c(O)c(C=Nc3ccccc3-c3n[nH]c(=S)[nH]c3=O)c3ccccc3c2=O)cc1C,"inconclusive: 20.6 µM [inhibitor, single point]",–
COc1ccc(C(=O)NCC(=O)N/N=C/c2ccc([N+](=O)[O-])s2)cc1OC,active: 8.2 µM,–
O=C(CSCc1ccc(Cl)cc1)Nc1ccc(-c2nnc(-c3ccccc3)o2)cc1,"inconclusive: 14.6 µM [activator, single point]",–
O=C(/C=C/c1ccccc1Cl)Nc1ccc(S(=O)(=O)Nc2ncccn2)cc1,"inconclusive: 29.1 µM [activator, partial curve, poor fit]",–
Cc1c(NC(=O)C(C)C)cccc1-c1nc2ncccc2o1,"inconclusive: 11.6 µM [activator, partial curve]",–
O=C(CN1CCN(C(C(=O)Nc2ccc(F)cc2)c2ccccc2)CC1)NC1CC1 (configuration not stated),–,inactive: 18%
COc1ccccc1CN(Cc1ccco1)S(=O)(=O)c1ccc(-n2cnnn2)c(OC)c1,"inconclusive: 20.6 µM [inhibitor, single point]",–
O=C(Nc1ccccc1F)c1ccc(Cn2cc(Br)cn2)cc1,"inconclusive: 16.4 µM [activator, partial curve]",–
CCCC1=[N+](CC(=O)c2ccccc2)CCn2cccc21,–,inactive: 2.94%
Clc1cccc(CN2CCN(Cc3nc(CCc4ccccc4)no3)CC2)c1,–,inactive: -9.4%
CC(C)c1ccc(NC(=O)[C@@H]2CCC(=O)N2C2OC(=O)c3ccccc32)cc1 (some centres not stated),"inconclusive: 3.26 µM [activator, partial curve]",–
O=C(/C=C/c1ccccc1Cl)NCc1ccccc1,"inconclusive: 23.1 µM [activator, single point]",–
Cc1cc(Nc2ccccc2)nn1C(=O)c1ccc(Cl)cc1,"inconclusive: 23.1 µM [activator, single point]",–
O=C(COC(=O)c1ccc2c(c1)C(=O)N(Cc1ccncc1)C2=O)Nc1cccc2ccccc12,"inconclusive: 25.9 µM [inhibitor, single point]",–

# Ordered by molar mass (rising): some entries from above.
SMILES,Potency,"activity change, negative = inhibition"
CC(C)Cc1nc2ccc(N)cc2[nH]1,–,inactive: -4.19%
CSc1ccc(C(=O)N2CCC(CCC(=O)NC3CC3)CC2)cc1,"inconclusive: 29.1 µM [activator, single point]",–
O=C(Nc1ccccc1F)c1ccc(Cn2cc(Br)cn2)cc1,"inconclusive: 16.4 µM [activator, partial curve]",–
Cc1csc2nc(CNS(=O)(=O)c3ccc(-c4ccccc4)cc3)cn12,"inconclusive: 14.6 µM [inhibitor, partial curve]",–
O=C(CN1CCN(C(C(=O)Nc2ccc(F)cc2)c2ccccc2)CC1)NC1CC1 (configuration not stated),–,inactive: 18%

# (more compounds)

SMILES,Potency,"activity change, negative = inhibition"
COc1ccc(COC(=O)c2cccc(S(=O)(=O)N3CCN(C(C)=O)CC3)c2)cc1,–,inactive: -22.4%
O=C(Nc1ccc(S(=O)(=O)NCc2ccco2)cc1)c1ccc(F)cc1,"inconclusive: 0.517 µM [inhibitor, full curve]",–
Nn1c(SCc2ccccc2)nc2ccccc21,"inconclusive: 16.4 µM [activator, partial curve]",–
Cc1ccc(NC(=O)n2ccc(-c3ccc(-n4ccnc4)cc3)n2)cc1,"inconclusive: 20.6 µM [activator, partial curve]",–
CCCC(C(=O)NC1CCCC1)N(Cc1ccc2c(c1)OCO2)C(=O)c1snc(C(N)=O)c1N (configuration not stated),"inconclusive: 23.1 µM [inhibitor, single point]",–
Cc1cc2cc(CN(Cc3cccs3)Cc3nnnn3CC3CCCO3)c(=O)[nH]c2cc1C (configuration not stated),"inconclusive: 16.4 µM [inhibitor, single point]",–
COc1cccc(-c2cc(C(=O)NCC3CCCO3)on2)c1 (configuration not stated),"inconclusive: 14.6 µM [activator, partial curve]",–
Brc1ccccc1OCCOc1cccc2cccnc12,"inconclusive: 20.6 µM [activator, single point]",–
C=CCn1c(SCC(=O)Nc2ccc(O)cc2)nc2sc(CC)cc2c1=O,"inconclusive: 20.6 µM [inhibitor, partial curve]",–
CC(=O)N/C(=C\c1ccccc1)C(=O)OC(C)C(=O)NCc1ccccc1 (configuration not stated),–,inactive: -3.01%
CC(=O)Nc1ccc(NS(=O)(=O)c2ccc3c(c2)oc(=O)n3C)cc1,–,inactive: -5.09%
COC(=O)c1ccc(NC(=O)CSc2nncn2-c2ccccn2)cc1,–,inactive: 6.35%
Cc1cccc(-c2c3c(=O)n(C)c(=O)n(C)c3cn2C(C)(C)C)c1,–,inactive: 0.531%
COc1ccc(-c2c(=O)n(OCc3nc4ccccc4[nH]3)c3ccccc3[n+]2[O-])cc1,"inconclusive: 29.1 µM [inhibitor, single point]",–
Cc1ccc(-c2cc(C(=O)N3CCOCC3)c3cc(C)ccc3n2)cc1,–,inactive: -17.2%
COC(=O)C1=C(C)OC(N)=C(C#N)C1c1ccccc1F (configuration not stated),"inconclusive: 14.6 µM [activator, partial curve, poor fit]",–
O=C(CNC(=O)c1ccccc1)OCc1nc2ccccc2s1,"inconclusive: 20.6 µM [activator, partial curve]",–
Cc1cc(C)c(NC(=O)CN2CCC(NC(=O)NC3CCCCC3)CC2)c(C)c1,–,inactive: 9.38%
NS(=O)(=O)c1ccc(N=Nc2c(=O)[nH]n3c(=O)c4c([nH]c23)CCCC4)cc1,–,inactive: -2.8%
CCCOc1ccc(C(=O)Nc2cc(S(=O)(=O)N3CCOCC3)ccc2N2CCOCC2)cc1,"inconclusive: 29.1 µM [inhibitor, single point]",–
COC(=O)c1cc(S(=O)(=O)Nc2cccc(C)c2C)cn1C,–,inactive: -7.14%
CNC(=O)c1ccccc1NC(=O)c1ccco1,–,inactive: 16.2%
Cc1ccccc1-n1ccnc1SCC(=O)Nc1cccc(S(=O)(=O)NC2=NCCC2)c1,–,inactive: -19.9%
CC(=O)c1ccc(NC(=O)c2cccc(NC(=O)c3ccccc3)c2)cc1,"inconclusive: 18.3 µM [activator, partial curve, poor fit]",–
